The values that follow come from publication PMC6193743, “Phosphoglucomutase 1 inhibits hepatocellular carcinoma progression by regulating glucose trafficking”.

The chains behind the UniProt entries cited, without tags or fusion partners.
UniProt Q9P0K8: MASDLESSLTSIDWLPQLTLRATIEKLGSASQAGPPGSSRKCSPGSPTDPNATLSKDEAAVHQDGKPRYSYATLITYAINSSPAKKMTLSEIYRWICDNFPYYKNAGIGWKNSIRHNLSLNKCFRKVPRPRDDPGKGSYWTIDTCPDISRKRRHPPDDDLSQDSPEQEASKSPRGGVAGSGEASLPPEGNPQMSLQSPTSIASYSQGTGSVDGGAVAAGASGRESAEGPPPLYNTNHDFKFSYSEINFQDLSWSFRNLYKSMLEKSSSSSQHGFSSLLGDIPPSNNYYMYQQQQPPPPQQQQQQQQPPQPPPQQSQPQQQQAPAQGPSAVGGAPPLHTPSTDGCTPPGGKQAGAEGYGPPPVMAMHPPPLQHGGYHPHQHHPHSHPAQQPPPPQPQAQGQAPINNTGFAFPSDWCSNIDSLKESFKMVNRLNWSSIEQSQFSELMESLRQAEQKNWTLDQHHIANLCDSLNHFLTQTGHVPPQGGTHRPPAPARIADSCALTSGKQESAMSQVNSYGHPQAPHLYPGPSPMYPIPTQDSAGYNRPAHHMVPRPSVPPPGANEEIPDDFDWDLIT
UniProt P62633: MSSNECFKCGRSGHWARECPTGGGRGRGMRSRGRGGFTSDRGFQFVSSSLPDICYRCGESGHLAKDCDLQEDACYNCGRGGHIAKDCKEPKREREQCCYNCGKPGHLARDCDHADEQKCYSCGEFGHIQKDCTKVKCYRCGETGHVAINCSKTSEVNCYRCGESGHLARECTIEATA

This assay has as its target Flag-FOXJ2 (forkhead box protein J2) (human) (UniProt Q9P0K8). Nature of the assay: affinity purification with mass spectrometry; Flag-FOXJ2 immunoprecipitated with anti-Flag antibody from SK-Hep1 cells stably expressing Flag-FOXJ2 (vector control); complex analysed by LC-MS.

These are yes or no findings as the source states them, for the method shown. Binding seen in cells or lysates may run through a third protein. A yes stands for co-enrichment or nearness to the bait. Other partners may have been found.

Take “cellular nucleic acid-binding protein (CNBP) (from UniProt P62633 1-177)”: the binding entry is on record as “binds”.
